Measurements as given in patent US20040005648A1, “PYK2 related products and methods” (Sugen, Inc., priority 1994, published 2004).
At least one structure is not confirmed: it was looked up by name or label, or the drawing left a doubt. Where no end group is shown, it is not given here.

Tested on: PYK2
Experiment: Tyrosine phosphorylation of PYK2 in stimulated PC12 cells (anti-PYK2 immunoprecipitation, anti-phosphotyrosine immunoblot)
Assay type: cell-based, rat
Conditions: for tyrosine phosphorylation of PYK2 in response to the agent: PC12 cells, agent alone, 37° C., b373: TPA 15 min, bradykinin 1 μM 1 min, A23187 2 μM 15 min, KCl 75 mM

RPPGFSPFR [bradykinin, Bradykinin]
effect of prolonged PMA treatment (down-regulation of PKC) on the agent-stimulated tyrosine phosphorylation of PYK2 (PC12 cells pretreated with 100 nM PMA for 12 h): had only a minor effect on bradykinin-stimulated tyrosine phosphorylation of PYK2
tyrosine phosphorylation of PYK2 in response to the agent: undergoes tyrosine phosphorylation
tyrosine phosphorylation of PYK2 in response to the agent (listed as Bradykinin): induces rapid tyrosine phosphorylation of PYK2
